The exact form of at least one protein or probe is not confirmed. The direction of at least one scale is not stated here.
Target: TDP-43 WT (UniProt Q13148)
Assay: binding assay
Details: CITED affinity; experiment here: no droplet formation at 250 mM NaCl; purified recombinant protein; single-stranded DNA

Chains of the proteins cited; added tags and fusions are not shown.
UniProt Q13148, whole entry: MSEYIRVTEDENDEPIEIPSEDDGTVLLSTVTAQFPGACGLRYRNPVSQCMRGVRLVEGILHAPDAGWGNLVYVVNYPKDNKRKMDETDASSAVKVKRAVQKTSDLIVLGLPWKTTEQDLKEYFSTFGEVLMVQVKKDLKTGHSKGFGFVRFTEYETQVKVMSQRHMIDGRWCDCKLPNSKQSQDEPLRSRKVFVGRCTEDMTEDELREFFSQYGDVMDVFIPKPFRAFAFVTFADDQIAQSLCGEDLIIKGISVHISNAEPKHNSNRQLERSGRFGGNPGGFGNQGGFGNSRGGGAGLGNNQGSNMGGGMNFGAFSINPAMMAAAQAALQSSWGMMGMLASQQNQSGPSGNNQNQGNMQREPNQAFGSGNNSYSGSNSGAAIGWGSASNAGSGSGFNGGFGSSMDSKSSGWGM

Work on “AGTGTGTGTGTGTGTGTGTGTGTGTGTGTGTGTGTGT [A(GT)18]” yielded a binding signal (fold lower affinity than RNA) of 200.

From patent US20230125788
